# Source: ChEMBL document CHEMBL1250504, “Antihypertensive and antiarrhythmic properties of a para-hydroxy[bis(ortho-morpholinylmethyl)]phenyl-1,4-DHP compound: comparison with other compounds of the same kind and relationship with logP values” (Eur J Med Chem, 2010)
# Experiment: Octanol-water partition coefficient, log P of the compound
smiles,measurement,value
COC(=O)C1=C(C)NC(C)=C(C(=O)OC)C1c1ccccc1[N+](=O)[O-] [NIFEDIPINE],logP,2.4
